Some of the results follow. Part of the spread comes from offsets between plates or batches.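 Hits were defined as a z-score below −3.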
molecular target: T1, YTHDF1 YTH domain (aa 365-554) (UniProt Q9BYJ9); test: tryptophan fluorescence intensity z-score (mean); higher = higher fluorescence, less quenching (negative = binding / quenching); conditions: 10 µM
T1 sequence (whole entry): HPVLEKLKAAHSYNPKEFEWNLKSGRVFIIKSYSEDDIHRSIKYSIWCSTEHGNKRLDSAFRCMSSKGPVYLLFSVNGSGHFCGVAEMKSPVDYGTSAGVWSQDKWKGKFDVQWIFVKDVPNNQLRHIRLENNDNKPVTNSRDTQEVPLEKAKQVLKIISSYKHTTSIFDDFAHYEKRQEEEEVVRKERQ

Tryptophan fluorescence intensity z-score, inactive:
COc1ccc2c(=O)c(CC(=O)O)coc2c1 (plate: M 15-16) 0.356, CNc1ccccc1C(=O)N1CCc2c([nH]c3ccccc23)C1=O (plate: M 19-20) 0.327, CCN[C@@H]1C[C@H](N)[C@@H](O[C@H]2OC(CN)=CC[C@H]2N)[C@H](O)[C@H]1O[C@H]1OC[C@](C)(O)[C@H](NC)[C@H]1O (plate: M 11-12) 0.517, FC(F)(F)COCC(F)(F)F (plate: M 13-14) 0.0808, COC1=C(OC)C(=O)C(C/C=C(\C)CC/C=C(\C)CC/C=C(\C)CC/C=C(/C)CC/C=C(\C)CC/C=C(\C)CC/C=C(\C)CC/C=C(\C)CC/C=C(\C)CCC=C(C)C)=C(C)C1=O (plate: M 19-20) 0.507, C=C(C)[C@@H]1CC=C(CO)CC1 (plate: M 19-20) 0.446, CC1(C)CC2C1CCC1(C)OC2(C)CCC1O (stereo unspecified) (plate: M 21-22) 0.424, O=C(c1ccccc1)c1ccc2n1CCC2C(=O)O (stereo unspecified) (plate: M 9-10) -0.518, CCOC(=O)[C@@](C)(N)Cc1ccc(O)c(O)c1 (plate: M 11-12) -0.488, COc1c(N2CCNC(C)C2)c(F)cc2c(=O)c(C(=O)O)cn(C3CC3)c12 (stereo unspecified) (plate: M 9-10) -0.273, N[C@@H](C(=O)O)[C@@H](O)[C@H](O)[C@H](O)CO (plate: M 17-18) 0.6, OCc1ccccc1O (plate: M 5-6) -0.081, c1ccc(CN(CC2=NCCN2)c2ccccc2)cc1 (plate: M 1-2) 0.273, Cc1cc(O)c2c(O)c3c(O)cccc3cc2c1 (plate: M 21-22) 0.0771, C=CCSCC1Nc2cc(Cl)c(S(N)(=O)=O)cc2S(=O)(=O)N1 (stereo unspecified) (plate: M 5-6) 0.0129, CC[C@@H](CO)NCCN[C@@H](CC)CO (plate: M 3-4) 0.141, CCCOc1ccc(C(=O)OCCN(CC)CC)cc1N (plate: M 11-12) -0.645, Nc1ccccc1C(=O)CC(N)C(=O)O (stereo unspecified) (plate: M 17-18) 0.416, N=C(N)NCCN1CCCCCCC1 (plate: M 3-4) 0.225, CC(CN(C)C)CN1c2ccccc2Sc2ccccc21 (stereo unspecified) (plate: M 5-6) -0.047, CC1(C)[C@@H](OC(=O)CCC(=O)O)CC[C@]2(C)[C@H]3C(=O)C=C4[C@@H]5C[C@@](C)(C(=O)O)CC[C@]5(C)CC[C@@]4(C)[C@]3(C)CC[C@@H]12 (plate: M 13-14) 0.696

From the supplement of paper PMC9578143, “Small-Molecule Ebselen Binds to YTHDF Proteins Interfering with the Recognition of N^6-Methyladenosine-Modified RNAs” (ACS Pharmacology & Translational Science, 2022)
